Measurements published in PMC5566832.

Columns and labels:
[1] = molecular target: T1, GFP-CLASP1_(1256-1538) (the kinetochore-binding domain of CLASP1) (human) (UniProt Q7Z460); assay: co-IP; GFP-TRAP magnetic beads on lysate of TaC12 cells transduced with GFP-CLASP1(1256-1538); lysis buffer with 0.5% NP-40; Western blot; control: nontransduced TaC12
T1 sequence: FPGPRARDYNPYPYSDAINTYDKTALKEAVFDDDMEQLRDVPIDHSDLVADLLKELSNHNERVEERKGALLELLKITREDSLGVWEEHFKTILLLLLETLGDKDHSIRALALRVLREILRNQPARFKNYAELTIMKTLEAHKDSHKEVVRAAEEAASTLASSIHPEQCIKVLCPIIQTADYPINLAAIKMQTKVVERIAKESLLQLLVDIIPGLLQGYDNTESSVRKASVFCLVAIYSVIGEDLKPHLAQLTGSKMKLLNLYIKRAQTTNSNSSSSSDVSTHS

[2] = molecular target: bovine CLASP1 (endogenous, host cell) (bovine (endogenous in TaC12)); assay: co-IP; IP of endogenous CLASP1 with 1 ug rabbit anti-CLASP1 antibody on protein G Dynabeads from 1 mg TaC12 lysate, overnight at 4 C; 50 mM Tris-HCl pH 7.4, 150 mM NaCl, 1 mM EDTA, 1% NP-40, 0.25% sodium deoxycholate; mock: rabbit IgG; Western blot

Molecule: Theileria schizont surface protein gp34
- binding [1]: no binding

B1: T. annulata schizont membrane protein p104 (TA08425), endogenous (protein, UniProt Q4U9M9 20-873)
chain: DELVMSPIPTTDVQPKVTFDINSEVSSGPLYLNPVEMAGVKYLQLQRQPGVQVHKVVEGDIVIWENEEMPLYTCAIVTQNEVPYMAYVELLEDPDLIFFLKEGDQWAPIPEDQYLARLQQLRQQIHTESFFSLNLSFQHENYKYEMVSSFQHSIKMVVFTPKNGHICKMVYDKNIRIFKALYNEYVTSVIGFFRGLKLLLLNIFVIDDRGMIGNKYFQLLDDKYAPISVQGYVATIPKLKDFAEPYHPIILDISDIDYVNFYLGDATYHDPGFKIVPKTPQCITKVVDGNEVIYESSNPSVECVYKVTYYDKKNESMLRLDLNHSPPSYTSYYAKREGVWVTSTYIDLEEKIEELQDHRSTELDVMFMSDKDLNVVPLTNGNLEYFMVTPKPHRDIIIVFDGSEVLWYYEGLENHLVCTWIYVTEGAPRLVHLRVKDRIPQNTDIYMVKFGEYWVRISKTQYTQEIKKLIKKSKKKLPSIEEEDSDKHGGPPKGPEPPTGPGHSSSESKEHEDSKESKEPKEHGSPKETKEGEVTKKPGPAKEHKPSKIPVYTKRPEFPKKSKSPKRPESPKSPKRPVSPQRPVSPKSPKRPESLDIPKSPKRPESPKSPKRPVSPQRPVSPRRPESPKSPKSPKSPKSPKVPFDPKFKEKLYDSYLDKAAKTKETVTLPPVLPTDESFTHTPIGEPTAEQPDDIEPIEESVFIKETGILTEEVKTEDIHSETGEPEEPKRPDSPTKHSPKPTGTHPSMPKKRRRSDGLALSTTDLESEAGRILRDPTGKIVTMKRSKSFDDLTTVREKEHMGAEIRKIVVDDDGTEADDEDTHPSKEKHLSTVRRRRPRPKKSSKSSKPRKPD
- binding [2]: binds

These are yes or no findings as the source states them, for the method shown. Binding seen in cells or lysates may run through a third protein. For some assays here: Binding can be weak; no strength is given. For some assays here: Sequences can lack the tags named with a protein.
